These are yes or no findings as the source states them, for the method shown. For part of these data: A result given as binding can be weak or reduced; the word gives no strength. Where a sequence is shown, tags or fusion partners need not be part of it.
T1: CP190 309–390 aa fused to the GAL4 DNA-binding domain (Drosophila melanogaster) (UniProt Q24478)
T1 sequence: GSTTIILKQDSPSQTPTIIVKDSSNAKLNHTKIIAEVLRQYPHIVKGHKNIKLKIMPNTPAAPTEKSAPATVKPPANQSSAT

Protein sequences, listed by entry. Tags and fused reporters are not part of them. Lines headed by an entry give the natural chain unless they say otherwise; changes in a name come on top.
UniProt Q86T24: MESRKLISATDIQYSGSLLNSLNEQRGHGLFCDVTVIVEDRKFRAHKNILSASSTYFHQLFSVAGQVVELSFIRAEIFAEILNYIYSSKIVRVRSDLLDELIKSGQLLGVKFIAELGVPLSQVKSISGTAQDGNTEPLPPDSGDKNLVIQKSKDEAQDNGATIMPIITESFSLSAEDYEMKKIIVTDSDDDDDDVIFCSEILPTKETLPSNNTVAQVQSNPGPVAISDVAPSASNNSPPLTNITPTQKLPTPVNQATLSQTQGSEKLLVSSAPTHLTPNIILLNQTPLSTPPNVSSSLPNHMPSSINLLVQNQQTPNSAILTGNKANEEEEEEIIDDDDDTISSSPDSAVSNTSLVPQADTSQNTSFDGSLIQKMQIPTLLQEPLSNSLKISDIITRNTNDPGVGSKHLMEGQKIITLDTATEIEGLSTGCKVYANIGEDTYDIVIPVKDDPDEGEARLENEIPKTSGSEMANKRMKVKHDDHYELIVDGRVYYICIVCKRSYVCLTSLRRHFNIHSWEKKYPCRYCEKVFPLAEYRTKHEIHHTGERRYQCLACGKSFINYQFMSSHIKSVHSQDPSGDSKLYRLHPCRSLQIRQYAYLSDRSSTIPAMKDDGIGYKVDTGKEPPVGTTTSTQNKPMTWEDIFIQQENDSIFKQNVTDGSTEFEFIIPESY
UniProt Q9VHM3: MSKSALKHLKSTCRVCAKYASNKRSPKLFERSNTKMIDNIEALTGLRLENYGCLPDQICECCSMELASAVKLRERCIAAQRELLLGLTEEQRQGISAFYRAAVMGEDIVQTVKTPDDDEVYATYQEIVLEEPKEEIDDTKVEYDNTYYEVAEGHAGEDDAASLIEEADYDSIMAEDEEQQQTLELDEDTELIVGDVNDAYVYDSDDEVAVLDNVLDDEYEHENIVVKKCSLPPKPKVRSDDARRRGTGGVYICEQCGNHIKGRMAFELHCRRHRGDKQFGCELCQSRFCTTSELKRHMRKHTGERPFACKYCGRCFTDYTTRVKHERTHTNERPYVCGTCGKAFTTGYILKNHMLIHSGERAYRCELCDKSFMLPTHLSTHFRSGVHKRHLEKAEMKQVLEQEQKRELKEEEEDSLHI

T2: CP190 1–245 aa fused to the GAL4 DNA-binding domain (Drosophila melanogaster) (UniProt Q24478)
T2 sequence: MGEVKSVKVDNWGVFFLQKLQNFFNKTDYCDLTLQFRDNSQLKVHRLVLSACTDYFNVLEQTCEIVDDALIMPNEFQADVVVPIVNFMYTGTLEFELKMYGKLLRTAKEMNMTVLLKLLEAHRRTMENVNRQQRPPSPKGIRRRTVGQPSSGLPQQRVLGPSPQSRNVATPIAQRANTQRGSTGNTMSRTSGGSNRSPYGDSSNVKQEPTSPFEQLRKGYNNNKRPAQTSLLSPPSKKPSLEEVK

T3: CP190 309–470 aa fused to the GAL4 DNA-binding domain (Drosophila melanogaster) (UniProt Q24478)
T3 sequence: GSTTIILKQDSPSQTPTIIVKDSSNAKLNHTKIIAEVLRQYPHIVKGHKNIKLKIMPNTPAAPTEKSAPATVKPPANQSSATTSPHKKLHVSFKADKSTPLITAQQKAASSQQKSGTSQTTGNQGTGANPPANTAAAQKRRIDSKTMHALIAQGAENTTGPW


Legend:
[1] = biological target: T1, CP190 309–390 aa fused to the GAL4 DNA-binding domain (Drosophila melanogaster); experiment: two-hybrid; CP190 variants fused to the GAL4 DNA-binding domain (pGBT9), C2H2 proteins fused to the GAL4 activating domain (pGAD424); yeast PJ69-4a; growth on medium without tryptophan, leucine, histidine and adenine, 30 °C, compared after 2-3 days; repeated three times
[2] = biological target: T2, CP190 1–245 aa fused to the GAL4 DNA-binding domain (Drosophila melanogaster); experiment: as above
[3] = biological target: T3, CP190 309–470 aa fused to the GAL4 DNA-binding domain (Drosophila melanogaster); experiment: as above
[4] = biological target: human Kaiso BTB domain (two-hybrid fusion) (human) (UniProt Q86T24); experiment: two-hybrid; BTB domains of CP190 and of human Kaiso (cloned in pGBT9 or pGAD424) tested with dCTCF, Su(Hw) and Pita (Supplementary Figure S5); yeast PJ69-4a; growth on medium without tryptophan, leucine, histidine and adenine, 30 °C
[5] = biological target: CP190 BTB domain (two-hybrid fusion) (Drosophila melanogaster) (UniProt Q24478); experiment: as above

Molecule	binding [1]	binding [2]	binding [3]	binding [4]	binding [5]
M1BP fused to the GAL4 activating domain (from UniProt Q9VHM3)	no binding	binds	no binding		
Opbp fused to the GAL4 activating domain (Drosophila melanogaster)	binds	binds	binds		
Pita (two-hybrid fusion) (protein, UniProt Q95RQ8 1-683) MAAKLEVREAMLTEKRVCRFCLTEQKLASIFEENPRVKTTANLPLQIMAITAIEVYAGDGMPGHICLECRLLFEHCYRFKQMCKRAETLLRQYPLTGNWPSPLEKPRAPMTMVASKKLLVVPAKTAEPSETPKKLLNTMAKSSSQVIIEDVQVLESAMVTPRTVAGSSPVPRRSHAYELKVDNNQELSMDDVQSMLEDMASELEKEFPDIPQKASPVKPKVLNKSSIRILNKGPAAPVEPRLATPKVKRDDSGNVAIVTEVLDSDLPLDDQDDPTKNAEKVATDVFPCPDCERSFPLQQLLEIHRLNHTRSRSFQCLLCEKSFFSKYDLAKHNFVHTGERPFKCAICSKAFTRKALLHRHERTHTDVPKFICVYCEKPFLSRQEMEKHAERHQKKRPFQCGVCTKSFAFKQGLERHETVHSTNLPFPCQHCERSFSTASKLARHLVAHAGKRAYPCKYCHKSYMLSHHLSRHLRTHTQTSDASFVCSECKVSYSNYNDLLDHALIHATASLKCPMCRKQIEDIDSVESHMDQHKQSERHACEFCDHIFLTQKCLQRHIEDDHVVEMEPYQNEFEDDGEGEGGVDEKEEHLDDFEDMDNVKQEEFVTEYLEDDALYEDHLDDSDESFTPPPPKQRKTNPPKDAQQSVRQTRSRDAQRITQKTGKNEGKPHHKLERNLKNRRSAK				no binding	binds

Second part, the molecule after the results:

binding [1]	binding [2]	binding [3]	binding [4]	binding [5]	Molecule
			no binding	binds	dCTCF (two-hybrid fusion) (protein, UniProt Q9VS55 1-818) MPRRTKKDEDPEDLQTFLNNFHKEIEGNSDEKVVNTILEAISAEAIDLDENGAEAGGSKPMEEAEADLDHAEEAEEEEEDDEDKYFIDDEGNCYIKTTPKKQKELQKKLKQAAAKPGKATRSVVSTATNKSINLRPAKSTPKATTSKPPPEPKAISVRPARAAAAKAKQSAMPPPPALVVKVPAPRGRPRKNPVIPKPEPMDLERELEELVDEPDISSMVTELSDYTVDEAAVEAATATLTPNEAEVYEFEDNATTEDENADKKDVDFVLSNKEVKLKTASSTSQNSNASGHKYSCPHCPYTASKKFLITRHSRSHDVEPSFKCSICERSFRSNVGLQNHINTHMGNKPHKCKLCESAFTTSGELVRHTRYKHTKEKPHKCTECTYASVELTKLRRHMTCHTGERPYQCPHCTYASQDMFKLKRHMVIHTGEKKYQCDICKSRFTQSNSLKAHKLIHSVVDKPVFQCNYCPTTCGRKADLRVHIKHMHTSDVPMTCRRCGQQLPDRYQYKLHVKSHEGEKCYSCKLCSYASVTQRHLASHMLIHLDEKPFHCDQCPQAFRQRQLLRRHMNLVHNEEYQPPEPREKLHKCPSCPREFTHKGNLMRHMETHDDSANAREKRRRLKLGRNVRLQKDGTVITLIKDQYVDMDRDQEENEEDDNPESYDLAEIEPENSEAEDADDDVETIVSDPIRQRIKPAPIIINKQARLAASEKQPMIINQRLRSQRGTKTFHIKEEPDNSDFTVEWQGDDGEVMVVELVNGDEEVLVKHEPSANSKISAKNCFGFEDDDDYEEYGDGENEVDGASQEFLQLMDMIEQDS
			no binding	binds	Su(Hw) (two-hybrid fusion) (protein, UniProt P08970 1-941) MSASKEGKEKKGKLLGVENISPPKDKRPATRMKLLNDVGAGEDSEASTTTTTSRTPSNKQEKRGSVAGSRIKILNEEILGTPKTEKRGATKSTAPAASTVKILNEKKTPSATVTAVETTKIKTSPSKRKKMEHYVLQAVKSENTKADTTVTVVTEEDDTIDFILADDEEVVPGRIENNNGQEIVVTEDDEDLGEDGDEDGEDSSGKGNSSQTKIKEIVEHVCGKCYKTFRRVQSLKKHLEFCRYDSGYHLRKADMLKNLEKIEKDAVVMEKKDICFCCSESYDTFHLGHINCPDCPKSFKTQTSYERHIFITHSEFSDFPCSICNANLRSEALLALHEEQHKSRGKPYACKICGKDFTRSYHLKRHQKYSSCSSNETDTMSCKVCDRVFYRLDNLRSHLKQHLGTQVVKKPEYMCHTCKNCFYSLSTLNIHIRTHTGEKPFDCDLCDKKFSALVALKKHRRYHTGEKPYSCTVCNQAFAVKEVLNRHMKRHTGERPHKCDECGKSFIQATQLRTHSKTHIRPFPCEQCDEKFKTEKQLERHVKTHSRTKRPVFSCAECKRNFRTPALLKEHMDEGKHSPKQQRSSMRSAVKIMERTDCAICDKNFDSSDTLRRHIRTVHECDPDDIFGVEPHPSKRAKKDIESEEVVPVALNTSAGSLISSQTDGNGVVVREFLVDEGDGAAQTITLENETYTILPLDGAIEGEQLTDEAGVKPEAKKEEAQVSPVVKKEQRKSLAASLAAAIADNLEESCSEDDFSGEILTEEDIKLKENVGKLIDMLVDPPILKKYGWPNAPEETVLCKVIENCGHDLTKGGENYAELDYGSRMREYCKLLFTVVIHNDSIKSLLNNFPIDDVIEYVLGDEDQDEGGLDKDNESHSGDEEAVSVTGETKTNEIREKPEKKEVSAKSEKKEIVGKAVDKDNSEEVVRENKKKPVGEQEKA

Reference: publication PMC10648081
